This is an account of results in publication PMC7171142.

Chains of the proteins cited; added tags and fusions are not shown. Residues count along the entry.
UniProt O97302, residues 20-1086: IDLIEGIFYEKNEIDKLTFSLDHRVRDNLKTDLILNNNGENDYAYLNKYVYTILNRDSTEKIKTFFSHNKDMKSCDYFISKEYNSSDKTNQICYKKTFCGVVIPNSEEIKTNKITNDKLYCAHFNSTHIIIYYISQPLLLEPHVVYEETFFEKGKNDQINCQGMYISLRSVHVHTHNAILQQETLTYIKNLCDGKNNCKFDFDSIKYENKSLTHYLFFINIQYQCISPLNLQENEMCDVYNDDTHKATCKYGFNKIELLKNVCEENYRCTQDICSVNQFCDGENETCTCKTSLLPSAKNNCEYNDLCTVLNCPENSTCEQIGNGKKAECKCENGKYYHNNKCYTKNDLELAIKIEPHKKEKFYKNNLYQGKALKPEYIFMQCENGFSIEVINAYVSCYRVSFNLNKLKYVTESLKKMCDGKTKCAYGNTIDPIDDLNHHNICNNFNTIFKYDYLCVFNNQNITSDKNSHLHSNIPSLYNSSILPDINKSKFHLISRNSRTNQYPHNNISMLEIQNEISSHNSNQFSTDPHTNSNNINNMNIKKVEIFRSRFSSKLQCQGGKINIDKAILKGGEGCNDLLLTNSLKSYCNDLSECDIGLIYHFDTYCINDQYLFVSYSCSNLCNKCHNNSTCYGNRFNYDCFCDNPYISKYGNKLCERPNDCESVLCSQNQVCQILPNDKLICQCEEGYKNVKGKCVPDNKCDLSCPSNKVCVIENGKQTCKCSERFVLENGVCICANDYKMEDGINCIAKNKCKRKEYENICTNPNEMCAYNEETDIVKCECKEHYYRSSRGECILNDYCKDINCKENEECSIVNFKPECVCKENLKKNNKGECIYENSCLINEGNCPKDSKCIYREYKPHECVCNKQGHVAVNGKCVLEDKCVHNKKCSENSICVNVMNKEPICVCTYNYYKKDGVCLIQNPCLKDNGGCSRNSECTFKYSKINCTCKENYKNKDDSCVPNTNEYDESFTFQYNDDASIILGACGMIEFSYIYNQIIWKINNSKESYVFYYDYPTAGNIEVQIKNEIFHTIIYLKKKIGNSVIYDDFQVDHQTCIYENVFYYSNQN
UniProt Q8IFM5, residues 25-526: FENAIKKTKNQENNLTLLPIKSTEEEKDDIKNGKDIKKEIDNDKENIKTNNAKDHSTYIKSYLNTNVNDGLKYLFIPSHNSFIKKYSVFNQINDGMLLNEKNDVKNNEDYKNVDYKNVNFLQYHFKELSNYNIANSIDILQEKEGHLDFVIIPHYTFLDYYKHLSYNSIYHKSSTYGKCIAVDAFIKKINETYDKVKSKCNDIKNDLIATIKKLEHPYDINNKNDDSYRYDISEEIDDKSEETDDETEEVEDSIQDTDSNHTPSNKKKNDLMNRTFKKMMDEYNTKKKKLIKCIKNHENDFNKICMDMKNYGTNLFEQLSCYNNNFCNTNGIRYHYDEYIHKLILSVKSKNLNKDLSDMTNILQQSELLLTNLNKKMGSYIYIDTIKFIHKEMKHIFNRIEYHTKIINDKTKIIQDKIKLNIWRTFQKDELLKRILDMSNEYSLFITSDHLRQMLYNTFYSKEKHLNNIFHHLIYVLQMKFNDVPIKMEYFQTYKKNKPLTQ

No constants are given. Whether binding was seen depends on the method and setting. Binding seen in cells or lysates may run through a third protein. Some results given as binding are weak or reduced against the parent protein; the word gives no strength.

This test deals with Full-length PfRipr (M1-N1086) with a C-terminal 3 x HA tag (P. falciparum 3D7) (UniProt O97302). Briefly: co-IP; PfRipr-HA immunoprecipitated with rabbit anti-HA antibody from schizont-rich parasite lysates; Western blot. On the technique in general: In western blotting, separated proteins are transferred to a membrane and probed.

For the substance “Rh5 of the parasite lysate (from UniProt Q8IFM5 25-526)”, the binding result is listed as “binds”.
